We go through 14 targets from the supplement of paper PMC12067093, “Discovery and optimisation of a covalent ligand for TRIM25 and its application to targeted protein ubiquitination” (Chemical Science, 2025).

The other results are listed elsewhere or left out.

Compound in this experiment: CC1Cc2ccccc2N1C(=O)C1CCCN(C1)C(=O)CCl (mixture of isomers) [TRIM25 ligand 11 (diastereomer mixture)]
Kind of experiment: probe-labelled cysteine peptide fold change vs DMSO (competition) (log2 fold change); higher = less target engagement (more negative = stronger competition). As to conditions: THP-1, incubation time: 4 h.
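Note: competitive chemoproteomic profiling in live THP-1 cells with an iodoacetamide desthiobiotin (IA-DTB) probe, comparing probe-labelled peptide intensities in compound-treated cells against DMSO-treated controls.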

Consider “HINT1_P49773_38_IIFEDDRCLAFHDISPQAPTHFLVIPK (UniProt P49773)”, for which the “probe-labelled cysteine peptide fold change” value (10 µM) is -0.447 and the “probe-labelled cysteine peptide fold change” value (50 µM) was -0.249.
The like results for HLA-DRA_P01903_188_KFHYLPFLPSTEDVYDCR were, in that order, -0.0824 and 0.0791.
In the same order, the values of “HIGD2A_Q9BW72_53_ENPVVPIGCLATAAALTYGLYSFHR (UniProt Q9BW72)” are 0.118 and -0.132.
The like results for “HLTF_Q14527_896_RVESIQCFQNTEAGSPTIMLLSLK (UniProt Q14527)” were, in that order, -3.58e-05 and 0.0148.
For “HEATR6_Q6AI08_846_ALGVYVLFPCLR (UniProt Q6AI08)”, the “probe-labelled cysteine peptide fold change” value is -0.322 (10 µM) and -0.0918 (50 µM).
The like results for “HEATR1_Q9H583_303_DGLSCLIVLLQR (UniProt Q9H583)” were, in that order, -0.198 and 0.192.
Regarding “HGH1_Q9BTY7_138_EPAPCAALMAALAAAEPADSGLER (UniProt Q9BTY7)”, the “probe-labelled cysteine peptide fold change” value reads like this: (10 µM) -0.136; (50 µM) -0.0514.
In the same order, the values of “HK1_P19367_158_LPVGFTFSFPCQQSK (UniProt P19367)” are -0.0245 and -0.0167.
For the target “HCK_P08631_48_TETSASPHCPVYVPDPTSTIK (UniProt P08631)”, the “probe-labelled cysteine peptide fold change” value (10 µM) was found to be 0.136 and the “probe-labelled cysteine peptide fold change” value (50 µM) is -0.0792.
“HMG20B_Q9P0W2_177_GGDCDGFSTFDVPIFTEEFLDQNK (UniProt Q9P0W2)”: the “probe-labelled cysteine peptide fold change” value was 0.000124 (10 µM) and -0.247 (50 µM).
In the same order, the values of “HDAC9_Q9UKV0_534_SDSSACVDDTLGQVGAVK (UniProt Q9UKV0)” are 0.000227 and -0.169.
In the same order, the values of “HECTD1_Q9ULT8_1127_DNSALNCHSNDDK (UniProt Q9ULT8)” are -0.0216 and -0.0197.
Take “HERC2_O95714_2609_DGLHDLNVQCDWQQK (UniProt O95714)”: the “probe-labelled cysteine peptide fold change” value is -0.0461 (10 µM) and 0.0197 (50 µM).
The like results for “HK2_P52789_909_GAALITAVACR (UniProt P52789)” were, in that order, -0.0724 and 0.0933.
